The supplement of paper PMC3682954
Values joined by “and” are separate entries in the source; they are usually repeats but may differ in a detail not shown here. Equal entries are not always repeated. Structures can show the parent of a compound that is named as a salt. ± gives the standard deviation of the averaged measurements. This is one part of the list. Single values are uncertain, as repeats are few or missing.

Test system: RAW 264.7
Assay: HMGB1-induced TNF-alpha production relative to HMGB1-stimulated control; higher = more TNF-alpha secretion (less inhibition)
Settings: stimulus: HMGB1 5 ug/ml, 18 h
[1] = compound concentration: 1 ug/ml

Row | SMILES | HMGB1-induced TNF-alpha production [1] [%] | HMGB1-induced TNF-alpha production (compound concentration: 3 uM)
1 | COC(=O)CCCC[C@@H]1SC[C@@H]2NC(=O)N[C@@H]21 [Biotin methyl ester] | 68.6 | 
2 | Cc1ccc(N(CC2=NCCN2)c2cccc(O)c2)cc1 [Phentolamine hydrochloride] |  | 76.6%
3 | Cc1ccc(N(CC2=NCCN2)c2cccc(O)c2)cc1 [Phentolamine] |  | 87.5%
4 | Cc1ccc(N(CC2=NCCN2)c2cccc(O)c2)cc1 |  | 91.1%
5 | Cc1ccc(N(CC2=NCCN2)c2cccc(O)c2)cc1 [Phentolamine mesylate] |  | 105%
6 | NC(N)=NCCCC(N)C(=O)O (stereo not drawn) [D(-)-Arginine] | 81.5 | 
7 | CC(C)(C)c1ccc(/C=C/C(=O)Nc2ccc3c(c2)OCCO3)cc1 |  | 82.7%
8 | O=C(O)c1ccccc1-c1c2cc(I)c(=O)c(I)c-2oc2c(I)c(O)c(I)cc12 |  | 55.1%
9 | CCc1ccc(CCOc2ccc(CC3SC(=O)NC3=O)cc2)nc1 (stereo unspecified) [Pioglitazone] |  | 83.1 ± 14%
10 | CCc1ccc(CCOc2ccc(CC3SC(=O)NC3=O)cc2)nc1 (stereo unspecified) |  | 110% and 97.1%
11 | CC[n+]1c(/C=C/C=C2/N(C)c3ccccc3C2(C)C)sc2ccccc21 |  | 109%
12 | Cc1c(Cl)cccc1Nc1ccccc1C(=O)O |  | 89.1%
13 | Cc1c(Cl)cccc1Nc1ccccc1C(=O)O [Tolfenamic acid] |  | 82.5 ± 20%
14 | CCCSc1ccc2[nH]c(NC(=O)OC)nc2c1 |  | 112%
15 | CCCSc1ccc2[nH]c(NC(=O)OC)nc2c1 [Albendazole] |  | 89.9 ± 4.8%
16 | CO[C@H]1/C=C/O[C@@]2(C)Oc3c(C)c(O)c4c(O)c(c(/C=N/N5CCN(C)CC5)c(O)c4c3C2=O)NC(=O)/C(C)=C\C=C\[C@H](C)[C@H](O)[C@@H](C)[C@@H](O)[C@@H](C)[C@H](OC(C)=O)[C@@H]1C [Rifampicin] | 58.7 | 71.9 ± 16%
17 | CO[C@H]1/C=C/O[C@@]2(C)Oc3c(C)c(O)c4c(O)c(c(/C=N/N5CCN(C)CC5)c(O)c4c3C2=O)NC(=O)/C(C)=C\C=C\[C@H](C)[C@H](O)[C@@H](C)[C@@H](O)[C@@H](C)[C@H](OC(C)=O)[C@@H]1C |  | 92.4%
18 | CC(C)NCC(O)c1ccc(O)c(O)c1 (racemic) [(±)-Isoproterenol hydrochloride] |  | 53.3%
19 | CC(C)NCC(O)c1ccc(O)c(O)c1 (racemic) [Isoproterenol (Rac)] |  | 80%
20 | CC(C(=O)O)c1ccc(CC2CCCC2=O)cc1 (stereo unspecified) [loxoprofen] |  | 110%
21 | CC(C(=O)O)c1ccc(CC2CCCC2=O)cc1 (stereo unspecified) |  | 119%
22 | CC[C@H]1OC(=O)[C@H](C)[C@@H](O[C@H]2C[C@@](C)(OC)[C@@H](O)[C@H](C)O2)[C@H](C)[C@@H](O[C@@H]2O[C@H](C)C[C@H](N(C)C)[C@H]2O)[C@](C)(O)C[C@@H](C)C(=O)[C@H](C)[C@@H](O)[C@]1(C)O |  | 74.9% and 76.7%
23 | CC[C@H]1OC(=O)[C@H](C)[C@@H](O[C@H]2C[C@@](C)(OC)[C@@H](O)[C@H](C)O2)[C@H](C)[C@@H](O[C@@H]2O[C@H](C)C[C@H](N(C)C)[C@H]2O)[C@](C)(O)C[C@@H](C)C(=O)[C@H](C)[C@@H](O)[C@]1(C)O [Erythromycin] |  | 100%
24 | CC[C@H]1OC(=O)[C@H](C)[C@@H](O[C@H]2C[C@@](C)(OC)[C@@H](O)[C@H](C)O2)[C@H](C)[C@@H](O[C@@H]2O[C@H](C)C[C@H](N(C)C)[C@H]2O)[C@](C)(O)C[C@@H](C)C(=O)[C@H](C)[C@@H](O)[C@]1(C)O [(-)-Erythromycin hydrate] | 56.9 | 
25 | CC1=C(/C=C/C(C)=C/C=C/C(C)=C/C=C/C=C(C)/C=C/C=C(C)/C=C/C2=C(C)CCCC2(C)C)C(C)(C)CCC1 [beta-CAROTENE] |  | 104%
26 | c1ccc(CC2=NCCN2)cc1 [Tolazoline hydrochloride] |  | 44%
27 | c1ccc(CC2=NCCN2)cc1 |  | 95.3%

Complete entries, quoted from the list.
Cc1ccc(N(CC2=NCCN2)c2cccc(O)c2)cc1 reads HMGB1-induced TNF-alpha production (compound concentration: 3 uM): 91.1%
c1ccc(CC2=NCCN2)cc1 [Tolazoline hydrochloride] reads HMGB1-induced TNF-alpha production (compound concentration: 3 uM): 44%
Cc1ccc(N(CC2=NCCN2)c2cccc(O)c2)cc1 [Phentolamine hydrochloride] reads HMGB1-induced TNF-alpha production (compound concentration: 3 uM): 76.6%

Remaining list, next part

Row | SMILES | HMGB1-induced TNF-alpha production [1] [%] | HMGB1-induced TNF-alpha production (compound concentration: 3 uM)
28 | NCCCCC(=O)O [5-Aminovaleric acid hydrochloride] |  | 73.3%
29 | CC(C)(Oc1ccc(CCNC(=O)c2ccc(Cl)cc2)cc1)C(=O)O |  | 81.1%
30 | CC(C)(Oc1ccc(CCNC(=O)c2ccc(Cl)cc2)cc1)C(=O)O [Bezafibrate] |  | 74 ± 9.5%
31 | OCCN1CCN(CCCN2c3ccccc3Sc3ccc(C(F)(F)F)cc32)CC1 [Fluphenazine] |  | 98.7%
32 | OCCN1CCN(CCCN2c3ccccc3Sc3ccc(C(F)(F)F)cc32)CC1 |  | 91 ± 9.4%
33 | OCCN1CCN(CCCN2c3ccccc3Sc3ccc(C(F)(F)F)cc32)CC1 [Fluphenazine dihydrochloride] |  | 80.2 ± 12%
34 | Clc1ccc2c(c1)C(N1CCNCC1)=Nc1ccccc1O2 [Amoxapine] |  | 76.1 ± 6.3%
35 | Clc1ccc2c(c1)C(N1CCNCC1)=Nc1ccccc1O2 |  | 82.2%
36 | CC(C)[C@@H](C)/C=C/[C@@H](C)[C@H]1CC[C@H]2C3=CC=C4C[C@@H](O)CC[C@]4(C)[C@H]3CC[C@]12C [Ergosterol] | 68.5 | 
37 | O=C1c2ccccc2C(=O)C1c1ccccc1 |  | 93.9%
38 | O=C1c2ccccc2C(=O)C1c1ccccc1 [Phenindione] |  | 75%
39 | O=C(O)CCc1nc(-c2ccccc2)c(-c2ccccc2)o1 [Oxaprozin] |  | 117 ± 35%
40 | O=C(O)CCc1nc(-c2ccccc2)c(-c2ccccc2)o1 |  | 98.4 ± 5.2%
41 | Oc1c(Br)cc(Br)c2cccnc12 |  | 133%
42 | CCC(=O)O[C@H]1CC[C@H]2[C@@H]3CCc4cc(O)ccc4[C@H]3CC[C@]12C |  | 101%
43 | COc1ccc(CC(C)NCC(O)c2ccc(O)c(NC=O)c2)cc1 (stereo unspecified) |  | 70.5%
44 | COc1ccc(CC(C)NCC(O)c2ccc(O)c(NC=O)c2)cc1 (stereo unspecified) [Formoterol] |  | 66.9%
45 | COc1ccc(CC(C)NCC(O)c2ccc(O)c(NC=O)c2)cc1 (stereo unspecified) [Formoterol fumarate] |  | 89.8%
46 | CC(C)C[C@H](NC(=O)[C@H](Cc1ccccc1)NC(=O)c1cnccn1)B(O)O [Bortezomib] |  | 8%
47 | O=C(OCCN1CCOCC1)C1(c2ccccc2)CCCCC1 |  | 106%
48 | O=C1C(c2c(O)[nH]c3ccccc23)=Nc2ccccc21 |  | 100%
49 | CCCCN1CCC(n2c(=O)[nH]c3ccccc32)CC1 [NS 521 oxalate] |  | 123%
50 | NC(=O)c1ccccc1O |  | 93.3%
51 | CCOC(=O)N1CCC(=C2c3ccc(Cl)cc3CCc3cccnc32)CC1 [Loratadine] |  | 98.6 ± 7.9%
52 | CCOC(=O)N1CCC(=C2c3ccc(Cl)cc3CCc3cccnc32)CC1 |  | 93.8 ± 18%
53 | Nc1nc(F)nc2c1ncn2[C@@H]1O[C@H](COP(=O)(O)O)[C@@H](O)[C@@H]1O |  | 105.2 ± 1%
54 | O=C1/C(=C/c2cccs2)CC/C1=C\c1cccs1 |  | 99.3%

Another view of some results above:
Row,SMILES,HMGB1-induced TNF-alpha production [1] [%],HMGB1-induced TNF-alpha production (compound concentration: 3 uM)
5,Cc1ccc(N(CC2=NCCN2)c2cccc(O)c2)cc1 [Phentolamine mesylate],,105%
39,O=C(O)CCc1nc(-c2ccccc2)c(-c2ccccc2)o1 [Oxaprozin],,117 ± 35%

(further entries)

Row | SMILES | HMGB1-induced TNF-alpha production [1] [%] | HMGB1-induced TNF-alpha production (compound concentration: 3 uM)
55 | COCCCC/C(=N\OCCN)c1ccc(C(F)(F)F)cc1 [Fluvoxamine maleate] |  | 82.7 ± 17%
56 | COCCCC/C(=N\OCCN)c1ccc(C(F)(F)F)cc1 [Fluvoxamine] |  | 104%
57 | COC(=O)[C@H](c1ccccc1Cl)N1CCc2sccc2C1 [Clopidogrel] |  | 64.8%
58 | COC(=O)[C@H](c1ccccc1Cl)N1CCc2sccc2C1 |  | 73.8%
59 | C[C@]12CCC(=O)C=C1CC[C@@H]1[C@@H]2C(=O)C[C@@]2(C)[C@H]1CC[C@]2(O)C(=O)CO [Cortisone] |  | 84.4 ± 15%
60 | C[C@]12CCC(=O)C=C1CC[C@@H]1[C@@H]2C(=O)C[C@@]2(C)[C@H]1CC[C@]2(O)C(=O)CO |  | 102 ± 20%
61 | O=C1N[C@H](C(=O)O)CS1 [4-Thiazolidinecarboxylic acid, 2-oxo-, (R)- [CAS]] |  | 105%
62 | CC[C@H](C)[C@H](NC(=O)OCC1c2ccccc2-c2ccccc21)C(=O)O [FMOC-L-Isoleucine] | 76.2 | 
63 | CCN(CC)CCNC(=O)c1ccc(NS(C)(=O)=O)cc1 [Sematilide monohydrochloride monohydrate] |  | 85.4%
64 | C[C@H](N[C@@H](CCc1ccccc1)C(=O)O)C(=O)N1CCC[C@H]1C(=O)O |  | 116%
65 | C[C@H](N[C@@H](CCc1ccccc1)C(=O)O)C(=O)N1CCC[C@H]1C(=O)O [Enalaprilat] |  | 108%
66 | C[C@H](N[C@@H](CCc1ccccc1)C(=O)O)C(=O)N1CCC[C@H]1C(=O)O [Enalaprilat dihydrate] |  | 99.4%
67 | O=C(O)C1CCCNC1 (racemic) [(±)-Nipecotic acid] |  | 95.8%
68 | CN(C)[C@@H]1C(O)=C(C(N)=O)C(=O)[C@@]2(O)C(O)=C3C(=O)c4c(O)cccc4[C@@](C)(O)[C@H]3C[C@@H]12 [Tetracycline] |  | 90.7%
69 | CN(C)[C@@H]1C(O)=C(C(N)=O)C(=O)[C@@]2(O)C(O)=C3C(=O)c4c(O)cccc4[C@@](C)(O)[C@H]3C[C@@H]12 [Tetracycline hydrochloride] | 74.5 | 72.9%
70 | CN(C)[C@@H]1C(O)=C(C(N)=O)C(=O)[C@@]2(O)C(O)=C3C(=O)c4c(O)cccc4[C@@](C)(O)[C@H]3C[C@@H]12 |  | 93.6%
71 | COc1cc2nc(N3CCN(C(=O)OCc4ccccc4)[C@H](C(=O)NC(C)(C)C)C3)nc(N)c2cc1OC |  | 108%
72 | Cc1cccc(C)c1NC(=O)c1ccccc1C(=O)O |  | 89.4%
73 | CCNC(=O)[C@H]1O[C@@H](n2cnc3c(N)nc(NCCc4ccc(CCC(=O)O)cc4)nc32)[C@H](O)[C@@H]1O |  | 89.3%
74 | CNCCNS(=O)(=O)c1cccc2cnccc12 [H-8 dihydrochloride] |  | 113%
75 | C[C@](N)(Cc1ccc(O)cc1)C(=O)O [L-alpha-Methyl-p-tyrosine] |  | 110%
76 | CC(C)NCC(O)COc1cccc2ccccc12 (racemic) |  | 84.4%
77 | CC(C)NCC(O)COc1cccc2ccccc12 (racemic) [(±)-Propranolol hydrochloride] |  | 113%
78 | CS(=O)(=O)c1ccc([C@@H](O)[C@@H](CF)NC(=O)C(Cl)Cl)cc1 |  | 84.3%
79 | CS(=O)(=O)c1ccc([C@@H](O)[C@@H](CF)NC(=O)C(Cl)Cl)cc1 [Florfenicol] |  | 97.2 ± 3%
